From patent US10194662B2, “Carbamate compound and use thereof” (SUMITOMO CHEMICAL COMPANY, LIMITED, priority 2015, dated 2019)
Some results were stated once for a whole list of compounds, not compound by compound.

Tested on: wheat rust fungus (Puccinia recondita)
Assay: Test Example 2: wheat rust, foliar spray preventive test
Format: in vivo
Settings: wheat (Shirogane), 500 ppm foliar spray, inoculated 5 days after spraying, assessed after 1 + 8 days

Structure (SMILES) | area of the lesion on treated plant relative to untreated plant [%]
COC(=O)Nc1ccccc1COc1ccc(-c2nccc(C)n2)cc1C [Compound 1] | ≤ 30
COC(=O)Nc1cccc(C)c1COc1ccc(-c2nccc(C)n2)cc1C [Compound 2] | ≤ 30
